Reference: publication PMC10473198
No constants are given. Whether binding was seen depends on the method and setting. Binding seen in cells or lysates may run through a third protein. Binding calls can cover weak binding; strength is not graded here. Where a sequence is shown, tags or fusion partners need not be part of it.

Biological target: T1, GFP-RBP47b (Arabidopsis thaliana) (UniProt Q0WW84)
T1 sequence: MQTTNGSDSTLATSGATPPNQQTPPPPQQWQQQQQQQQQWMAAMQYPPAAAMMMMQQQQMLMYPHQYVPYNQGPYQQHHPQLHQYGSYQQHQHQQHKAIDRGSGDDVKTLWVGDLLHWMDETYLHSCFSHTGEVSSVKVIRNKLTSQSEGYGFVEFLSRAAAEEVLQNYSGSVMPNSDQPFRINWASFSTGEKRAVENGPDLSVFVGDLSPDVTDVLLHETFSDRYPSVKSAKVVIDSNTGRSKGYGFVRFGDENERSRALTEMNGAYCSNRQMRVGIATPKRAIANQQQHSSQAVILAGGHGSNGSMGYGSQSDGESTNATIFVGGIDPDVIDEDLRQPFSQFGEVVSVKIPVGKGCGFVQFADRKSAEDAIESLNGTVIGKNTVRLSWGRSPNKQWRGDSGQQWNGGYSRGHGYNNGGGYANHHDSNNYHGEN
Assay: co-IP; GFP-based coprecipitation from lysate of CaMV-infected GFP-RBP47b Arabidopsis (21 dpi) with anti-GFP magnetic agarose beads, 60 min at 4 °C; buffer 100 mM Tris pH 8, 150 mM NaCl, 20 mM KCl, 2 mM MgCl2, 1% TX-100; immunoblot for P6 and P4; free GFP plants as control

Substance	binding
Cauliflower mosaic virus protein P6	binds
Cauliflower mosaic virus protein P4	no binding
